The target of this test is full-length ZNF746 fused to TurboID (human) (UniProt Q6NUN9). Description: proximity labelling.

The chains behind the UniProt entries cited, without tags or fusion partners.
UniProt Q6NUN9: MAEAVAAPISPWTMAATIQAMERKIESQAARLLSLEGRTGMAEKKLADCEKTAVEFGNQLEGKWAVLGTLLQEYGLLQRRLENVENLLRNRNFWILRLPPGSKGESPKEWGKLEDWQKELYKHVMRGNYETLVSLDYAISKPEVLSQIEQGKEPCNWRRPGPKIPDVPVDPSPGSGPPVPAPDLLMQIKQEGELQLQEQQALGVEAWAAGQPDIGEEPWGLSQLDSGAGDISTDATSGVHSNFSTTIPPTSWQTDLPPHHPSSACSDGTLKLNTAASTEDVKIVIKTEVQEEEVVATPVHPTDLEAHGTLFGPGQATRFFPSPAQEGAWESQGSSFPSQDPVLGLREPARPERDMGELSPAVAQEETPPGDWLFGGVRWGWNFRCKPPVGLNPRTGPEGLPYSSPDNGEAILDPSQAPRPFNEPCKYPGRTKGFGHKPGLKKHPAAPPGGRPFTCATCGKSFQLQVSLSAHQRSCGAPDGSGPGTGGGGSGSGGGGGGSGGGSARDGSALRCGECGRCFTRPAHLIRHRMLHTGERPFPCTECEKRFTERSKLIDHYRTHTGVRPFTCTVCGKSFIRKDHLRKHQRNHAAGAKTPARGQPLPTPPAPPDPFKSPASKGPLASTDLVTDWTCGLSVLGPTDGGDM

Results are given in words; binding and its absence hold for the method and conditions named. Binding seen in cells or lysates may run through a third protein. A yes stands for co-enrichment or nearness to the bait. Other partners may have been found.

B1: RNA helicase UPF1 (protein, UniProt Q92900 1-1129)
chain: MSVEAYGPSSQTLTFLDTEEAELLGADTQGSEFEFTDFTLPSQTQTPPGGPGGPGGGGAGGPGGAGAGAAAGQLDAQVGPEGILQNGAVDDSVAKTSQLLAELNFEEDEEDTYYTKDLPIHACSYCGIHDPACVVYCNTSKKWFCNGRGNTSGSHIVNHLVRAKCKEVTLHKDGPLGETVLECYNCGCRNVFLLGFIPAKADSVVVLLCRQPCASQSSLKDINWDSSQWQPLIQDRCFLSWLVKIPSEQEQLRARQITAQQINKLEELWKENPSATLEDLEKPGVDEEPQHVLLRYEDAYQYQNIFGPLVKLEADYDKKLKESQTQDNITVRWDLGLNKKRIAYFTLPKTDSGNEDLVIIWLRDMRLMQGDEICLRYKGDLAPLWKGIGHVIKVPDNYGDEIAIELRSSVGAPVEVTHNFQVDFVWKSTSFDRMQSALKTFAVDETSVSGYIYHKLLGHEVEDVIIKCQLPKRFTAQGLPDLNHSQVYAVKTVLQRPLSLIQGPPGTGKTVTSATIVYHLARQGNGPVLVCAPSNIAVDQLTEKIHQTGLKVVRLCAKSREAIDSPVSFLALHNQIRNMDSMPELQKLQQLKDETGELSSADEKRYRALKRTAERELLMNADVICCTCVGAGDPRLAKMQFRSILIDESTQATEPECMVPVVLGAKQLILVGDHCQLGPVVMCKKAAKAGLSQSLFERLVVLGIRPIRLQVQYRMHPALSAFPSNIFYEGSLQNGVTAADRVKKGFDFQWPQPDKPMFFYVTQGQEEIASSGTSYLNRTEAANVEKITTKLLKAGAKPDQIGIITPYEGQRSYLVQYMQFSGSLHTKLYQEVEIASVDAFQGREKDFIILSCVRANEHQGIGFLNDPRRLNVALTRARYGVIIVGNPKALSKQPLWNHLLNYYKEQKVLVEGPLNNLRESLMQFSKPRKLVNTINPGARFMTTAMYDAREAIIPGSVYDRSSQGRPSSMYFQTHDQIGMISAGPSHVAAMNIPIPFNLVMPPMPPPGYFGQANGPAAGRGTPKGKTGRGGRQKNRFGLPGPSQTNLPNSQASQDVASQPFSQGALTQGYISMSQPSQMSQPGLSQPELSQDSYLGDEFKSQIDVALSQDSTYQGERAYQHGGVTGLSQY
With B1, the binding entry is reported as “binds”.

Source of the values: paper doi:10.1101/2025.03.01.640934.
